Source: PMC7819943, “Rice protein-binding microarrays: a tool to detect cis-acting elements near promoter regions in rice”
The list shows a part of the results.

Sequences of proteins named here, by UniProt entry; tags and fusion partners are left off.
UniProt Q0JBA9, entry or part of it: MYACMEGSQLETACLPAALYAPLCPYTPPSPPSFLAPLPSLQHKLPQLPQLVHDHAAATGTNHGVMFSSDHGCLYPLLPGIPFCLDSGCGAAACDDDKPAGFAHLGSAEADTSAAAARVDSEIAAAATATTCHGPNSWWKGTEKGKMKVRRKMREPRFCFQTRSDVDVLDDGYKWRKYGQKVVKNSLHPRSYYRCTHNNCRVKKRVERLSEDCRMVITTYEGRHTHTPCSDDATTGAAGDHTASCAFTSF

biological target: OsWRKY34 (Oryza sativa, UniProt Q0JBA9 1-250); experiment: protein-binding microarray (RPBM); PBS, 2% BSA, 51.3 ng/ul salmon testes DNA, 50 uM zinc acetate, 200 nM TF, 25 C, 1 h; high values mean tight binding; conditions: protein: recombinant; tags: N-terminal polyhistidine and DsRed monomer fusion (pET32a); label: CyDye5-dUTP incorporated in the synthesized complementary strand; 3' TTTTT single-stranded linker to array surface; dsDNA, one strand shown
Summary of the method: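 The binding signal for each feature is its fluorescence intensity in arbitrary units. An Axon 4000B scanner was used to read a custom Agilent array that had been made double-stranded with Cy5-dUTP primer extension, blocked with 2% BSA, incubated at 25 °C for 1 h with 200 nM protein in PBS, 2% BSA, salmon testes DNA and 50 µM zinc acetate, and washed. The protein was an N-terminal polyhistidine–DsRed transcription factor fusion from E. coli BL21-CodonPlus, purified on Ni–NTA.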

Sequence | binding signal
CCAGTTGGCTCTATGCCATGCCGCTTTCAGTCTCTCTGATCGGAGTCACCTAGTGCAG | 9520 fluorescence intensity (a.u.)
ACATTTTTGCCGATCAAGCTATCATTGGGCACATTAATTCCGGAGTCACCTAGTGCAG | 10400 fluorescence intensity (a.u.)
GACAATTTCTTTTTCCGATGGGATTTTAGTTTTTTGTTTTCGGAGTCACCTAGTGCAG | 9700 fluorescence intensity (a.u.)
TCCATCCAACCATTGTAATTACTACTCCCTCCGTATTTTACGGAGTCACCTAGTGCAG | 8880 fluorescence intensity (a.u.)
GCCCTTGCCGCCACGCCACCCGCCCGCCGCTACCGCCGCTCGGAGTCACCTAGTGCAG | 12600 fluorescence intensity (a.u.)
ATATTGTTCATTCTGCCCAATTACTTCTACTCTTATTCATCGGAGTCACCTAGTGCAG | 11300 fluorescence intensity (a.u.)
AGTCGTCACATCACTTACCGCACACATGCTCTTTCGGAATCGGAGTCACCTAGTGCAG | 11800 fluorescence intensity (a.u.)
TATTCAGTCCTATGTTCTCGTGGTTCGTCCATGCAAACCACGGAGTCACCTAGTGCAG | 8460 fluorescence intensity (a.u.)
GGTTTATTGGTTCGCGAATCCGCGGCGGGGCGCGGGTGGTCGGAGTCACCTAGTGCAG | 8360 fluorescence intensity (a.u.)
CGCCTATTCCGTTCTTCGTTATTTTCCTTCACTACTTACTCGGAGTCACCTAGTGCAG | 10300 fluorescence intensity (a.u.)
CCGTCTCTTTGTCTCCTCCGCTCCTTGCGCCGCCGCCAAGCGGAGTCACCTAGTGCAG | 10800 fluorescence intensity (a.u.)
AGTATTTCTTGCTTTACCACTGTGCAGGTAGCTCGCCATGCGGAGTCACCTAGTGCAG | 11100 fluorescence intensity (a.u.)
TCGTGTTGCTGCTTAATTGCTGTGCTTCTCCATCGCCATGCGGAGTCACCTAGTGCAG | 9940 fluorescence intensity (a.u.)
ATCTATGTCAGCATATTTTCCTACTTGGAATGTATTAAATCGGAGTCACCTAGTGCAG | 8410 fluorescence intensity (a.u.)
CGCGCCATCATGTCGTCCTCGAGCCCCACGCGCCATCATGCGGAGTCACCTAGTGCAG | 8940 fluorescence intensity (a.u.)
TATTGTACATGCTCTATCGTCAACCACTGAGCTACTAGTACGGAGTCACCTAGTGCAG | 8480 fluorescence intensity (a.u.)
TTGTTGGGCTGGGCTGGGATTCCCAAGAAGGTCTAGACTTCGGAGTCACCTAGTGCAG | 11400 fluorescence intensity (a.u.)
CGCTGCCTGTGTTTTTCCGCGTGACGACGGCGCGGAGATCCGGAGTCACCTAGTGCAG | 8120 fluorescence intensity (a.u.)
AATTGTGTGCTTGTCAATTATATTTATTTGGATTTTCTCTCGGAGTCACCTAGTGCAG | 8960 fluorescence intensity (a.u.)
CATTACGTGAAGGACGCCTATGTACCATGACACGCTCCAACGGAGTCACCTAGTGCAG | 8370 fluorescence intensity (a.u.)
CACATATGGCATCTACATCTCCCAACCTTGCACACATCGACGGAGTCACCTAGTGCAG | 8350 fluorescence intensity (a.u.)

Sequence | binding signal
GACTTGCTTAGCAGTGCCACAATTCCTTTCCACTCTCTCTCGGAGTCACCTAGTGCAG | 9340 fluorescence intensity (a.u.)
GTCGCATCAGTCGAGCTCGGCCGGAGGAGGAGGGGAGGGTCGGAGTCACCTAGTGCAG | 10800 fluorescence intensity (a.u.)
AGATGGCTTGTCGTGGCTGCTGTGGCGCATGTACCCGGATCGGAGTCACCTAGTGCAG | 8640 fluorescence intensity (a.u.)
GCCCCGTCATGGGAGAAGCCGCTTTTTTTTTTTTTTTTTGCGGAGTCACCTAGTGCAG | 8760 fluorescence intensity (a.u.)
GTCAGTCCTTGTCACGTTTGCTACGGCCATCCCGTCCAATCGGAGTCACCTAGTGCAG | 12400 fluorescence intensity (a.u.)
TTACTCCCTTGCCTTTTAAGCACTCTTTCCTTCCTTACAACGGAGTCACCTAGTGCAG | 8410 fluorescence intensity (a.u.)
GGGTTTCCAAAATATGTGGGTTTTTTTTGTTGCAATGAAACGGAGTCACCTAGTGCAG | 12200 fluorescence intensity (a.u.)
AATTCGATCTCTTCTTTCTCCCTTTTTTTCTGTTCGGTTTCGGAGTCACCTAGTGCAG | 8730 fluorescence intensity (a.u.)
CTACTAGCTAGTGCTCTCACTCTCACTCACTCACACTGTCCGGAGTCACCTAGTGCAG | 12700 fluorescence intensity (a.u.)
TATTTTCTTTCTGCAGAACTGCTATCACTGTCTGTAACATCGGAGTCACCTAGTGCAG | 9660 fluorescence intensity (a.u.)
CCCATCACCGCCCTTGGCCGAGCCGCATCTACCCGCATCGCGGAGTCACCTAGTGCAG | 8770 fluorescence intensity (a.u.)
ATTGATCTCCTTTGACTTTTGCCAGTATCTCCTCTTCCTTCGGAGTCACCTAGTGCAG | 12700 fluorescence intensity (a.u.)
AGCCGATTTTCTTTCTTGCTTAATTATTATCCGGCGTCTTCGGAGTCACCTAGTGCAG | 11400 fluorescence intensity (a.u.)
TGCTAAAAAGTCAACGGTGTCAAACATTTCGAAACGGAGGCGGAGTCACCTAGTGCAG | 10900 fluorescence intensity (a.u.)
ATGTCTCTGTTTTCATAGTTCTATTTATGATATTATAACACGGAGTCACCTAGTGCAG | 8760 fluorescence intensity (a.u.)
TCGTTTTTTTTTTCTTTTCTTGATCTCTTCTCCTCCTTCCCGGAGTCACCTAGTGCAG | 8680 fluorescence intensity (a.u.)
GAGGAGGAATTTCTGGTTGGATTTAGTGGATCGTTTTAAACGGAGTCACCTAGTGCAG | 8520 fluorescence intensity (a.u.)
TTCTCTCTCCAGTCCAATCTCACCCATCGCCGACGACCCACGGAGTCACCTAGTGCAG | 9150 fluorescence intensity (a.u.)
TTTATTTCGAGCTACTTTTGACTTTCCATCTGATTTGCCGCGGAGTCACCTAGTGCAG | 8210 fluorescence intensity (a.u.)
TCTGTGCGAGGAGTGGTTCTGTGGTTTTCTGCATGTTCAACGGAGTCACCTAGTGCAG | 12000 fluorescence intensity (a.u.)
CTGGTTTTTGAGCCTCTCGTGCCTGATCCTGCTTTCTTGTCGGAGTCACCTAGTGCAG | 8192 fluorescence intensity (a.u.)

Sequence | binding signal
TAGTTTATTAGTTTGGCTTATGTCTCACCGTGATCATCTCCGGAGTCACCTAGTGCAG | 8700 fluorescence intensity (a.u.)
TGAATCGGGTCATGTCTTTCTGACCATGTTTGGTGGATTTCGGAGTCACCTAGTGCAG | 8440 fluorescence intensity (a.u.)
CTCTTTTTACCGTACCTGTTCCTATTTGAAATATTTAGATCGGAGTCACCTAGTGCAG | 9350 fluorescence intensity (a.u.)
AATACGTACGCTTGCTTCATCTTCTTCTTCACCATCCATGCGGAGTCACCTAGTGCAG | 9030 fluorescence intensity (a.u.)
CAACCTCTCCGGGGCGGGGCTGGCCGGCGAGCTGGCGGCGCGGAGTCACCTAGTGCAG | 9150 fluorescence intensity (a.u.)
CGCCGCACTCCTGTCTGTCTCTGCACTCTCGGACTCGTCTCGGAGTCACCTAGTGCAG | 8200 fluorescence intensity (a.u.)
ACAGCTGCAAACTCCTCCTTCCTTGATTTCTTCACCCTGTCGGAGTCACCTAGTGCAG | 8160 fluorescence intensity (a.u.)
TAAAGCATCCGACACTGCCACGTGGGCCCACCGACCCGACCGGAGTCACCTAGTGCAG | 8040 fluorescence intensity (a.u.)
ACTTCTATAATATATGTAAATTACCTTTTGGCTTTGCTGACGGAGTCACCTAGTGCAG | 8060 fluorescence intensity (a.u.)
TTGATGTTTTTCTTAATTGTACCTTGATTTTGTTGACATACGGAGTCACCTAGTGCAG | 9100 fluorescence intensity (a.u.)
GAATTTTGCTTTGGTTCAACCTTTTTTCTCTTCTTTCTCTCGGAGTCACCTAGTGCAG | 9740 fluorescence intensity (a.u.)
CAATCTCTTGACTATTTCTGCTGTCCAAGTCCAACAACGCCGGAGTCACCTAGTGCAG | 9240 fluorescence intensity (a.u.)
AGTTTTTACTAAATTTTAGTCACTGTTTTCCACAGAGGAACGGAGTCACCTAGTGCAG | 9150 fluorescence intensity (a.u.)
GGGAAACCTCGTAGGATAAGTGTCCTTAATAGTCATTTCACGGAGTCACCTAGTGCAG | 8230 fluorescence intensity (a.u.)
TCGCTTCTCCTCCACACCCACGAATCCCCGCCGTCTCCTCCGGAGTCACCTAGTGCAG | 9430 fluorescence intensity (a.u.)
GCCGTGTCCGTTGCCGTGTTGCGTCCCACCCGTCACTCTACGGAGTCACCTAGTGCAG | 8200 fluorescence intensity (a.u.)
CAAAGCACACTTCCGTTTCCGCTTTCCCTAGCGTTTGTTTCGGAGTCACCTAGTGCAG | 9810 fluorescence intensity (a.u.)
TTTTTCTCTTTTCCTTCTCTCTCTTGGGCGACTATTTAACCGGAGTCACCTAGTGCAG | 8500 fluorescence intensity (a.u.)
GTCTGGATCAGAGCTGTCCACATTGGTTGTATTCCTCTTTCGGAGTCACCTAGTGCAG | 8300 fluorescence intensity (a.u.)
CAGAGGTCAGTAACTCTTTCCTGCTTTCTACACTTGTTCCCGGAGTCACCTAGTGCAG | 9420 fluorescence intensity (a.u.)
CTCTCTCTCTCTCTCTCTCTACGACTCCCACCTCCACCTCCGGAGTCACCTAGTGCAG | 8810 fluorescence intensity (a.u.)

Sequence | binding signal
CTCCCTATATGTATACTCTAGTTTAATTAGTTTGTTGAGACGGAGTCACCTAGTGCAG | 8190 fluorescence intensity (a.u.)
AGGTAGGGTTTGCCTTTTCATTTTCCAAAACCGATGACTTCGGAGTCACCTAGTGCAG | 8450 fluorescence intensity (a.u.)
TTTCCTCTAAAGTTCGTCGCGTCTTCTCTGTTCTTCTTCACGGAGTCACCTAGTGCAG | 13100 fluorescence intensity (a.u.)
TCTTCTGCTTCCTCTACATCTCCATCGGCCTCGCCGCCTACGGAGTCACCTAGTGCAG | 8960 fluorescence intensity (a.u.)
TGAGTTCAATTTTTCTATGGTTGGTTCTTGTGTGTCCCTACGGAGTCACCTAGTGCAG | 9270 fluorescence intensity (a.u.)
TCGAACGTGTCCGGAATTTTATCGTTTCTGAAGGTTTTTTCGGAGTCACCTAGTGCAG | 9910 fluorescence intensity (a.u.)
CACACGATTGAGTGACCAGATTACTCATTACACGTTCAATCGGAGTCACCTAGTGCAG | 8580 fluorescence intensity (a.u.)
GAGGGGCGCGTTTTATCCGATTTTGCGGTTTAGGGACGAACGGAGTCACCTAGTGCAG | 10800 fluorescence intensity (a.u.)
ATTGGTTGTGCGTCGTCTTGTGTGTCTCTTTCACAGCGACCGGAGTCACCTAGTGCAG | 11600 fluorescence intensity (a.u.)
TGGGATGGTTGACGGGAAGGAAGGAAAGGGGAAAAGAAGGCGGAGTCACCTAGTGCAG | 8280 fluorescence intensity (a.u.)
ACGCAACCGATCAGTCTCGCTTCTCGCCTCGTCTCGTCTCCGGAGTCACCTAGTGCAG | 12100 fluorescence intensity (a.u.)
GGTTATATACGGTTGGGAGAGGAGAGCTGACTTGGCGGGGCGGAGTCACCTAGTGCAG | 10000 fluorescence intensity (a.u.)
GAGATCCTACTTCTTTGAGCCTCTTGCTTTCAATGTTCTGCGGAGTCACCTAGTGCAG | 8910 fluorescence intensity (a.u.)
TGGCGGCGTGGAGCCGCGAGGGCGGTGGCGGCGGGGAGTTCGGAGTCACCTAGTGCAG | 10400 fluorescence intensity (a.u.)
ACAGATGATTCTTGCGCTTTTGATTTTCCCTACGCTTTTTCGGAGTCACCTAGTGCAG | 9710 fluorescence intensity (a.u.)
ATCTATCACCCACTAACCACTCATCTCTCATTTTTTCTTTCGGAGTCACCTAGTGCAG | 12600 fluorescence intensity (a.u.)
GATCTCCGCCGACGTCCCCATCCTCCACTCGGAGAACCTCCGGAGTCACCTAGTGCAG | 11000 fluorescence intensity (a.u.)
TCCCACGCTTCCGCTTCCGCATCAGACAAACCTCTCACTACGGAGTCACCTAGTGCAG | 10500 fluorescence intensity (a.u.)
ATGAATGCCGTTCTTGCTTTATCCAGTACATGTAAACATTCGGAGTCACCTAGTGCAG | 8850 fluorescence intensity (a.u.)
CGGTTCGATGGCTGGTCTAGTCTCAATAACTATGATTCAACGGAGTCACCTAGTGCAG | 9090 fluorescence intensity (a.u.)
ACAGTTTCTCTTGCTCTCTTTTTTTCCTTTTCATTCTTTCCGGAGTCACCTAGTGCAG | 13400 fluorescence intensity (a.u.)

Six successive records already listed, for reference:
Sequence | binding signal
ATCTATCACCCACTAACCACTCATCTCTCATTTTTTCTTTCGGAGTCACCTAGTGCAG | 12600 fluorescence intensity (a.u.)
GATCTCCGCCGACGTCCCCATCCTCCACTCGGAGAACCTCCGGAGTCACCTAGTGCAG | 11000 fluorescence intensity (a.u.)
TCCCACGCTTCCGCTTCCGCATCAGACAAACCTCTCACTACGGAGTCACCTAGTGCAG | 10500 fluorescence intensity (a.u.)
ATGAATGCCGTTCTTGCTTTATCCAGTACATGTAAACATTCGGAGTCACCTAGTGCAG | 8850 fluorescence intensity (a.u.)
CGGTTCGATGGCTGGTCTAGTCTCAATAACTATGATTCAACGGAGTCACCTAGTGCAG | 9090 fluorescence intensity (a.u.)
ACAGTTTCTCTTGCTCTCTTTTTTTCCTTTTCATTCTTTCCGGAGTCACCTAGTGCAG | 13400 fluorescence intensity (a.u.)
